Assay results reported in patent US9314383B2, “Absorptive article” (UNICHARM CORPORATION, priority 2012, dated 2016).

Assay: Absorbent body migration rate
Conditions: after second dropping of horse EDTA blood; agent coated about 5 g/m^2
For `CCCCOC(=O)CC(CC(=O)OCCCC)(OC(C)=O)C(=O)OCCCC` [Tributyl O-acetylcitrate], the “Absorbent body migration rate” value was 8 s. In the case of `CCCCC(CC)C(=O)OCC(COC(=O)C(CC)CCCC)OC(=O)C(CC)CCCC` (stereo not drawn) [PANACET 800B], the “Absorbent body migration rate” value is reported as 3 s. With `CCCCCCCCCCCCCC(=O)OCCCCCCCCCCCC` [ELECTOL WE40, Ester of tetradecanoic acid (C14) and dodecyl alcohol (C12)] the “Absorbent body migration rate” value was 4 s. For `CCCCCCCCCCCC(=O)OCC(O)CO` (stereo not drawn) [90-L2 Lauric acid monoglyceride, lauric acid monoglyceride], the “Absorbent body migration rate” value was 7 s. With `CCCCCCCCCCCCOC(=O)CCCCCCCCCCC` [ELECTOL WE20, Ester of dodecanoic acid (C12) and dodecyl alcohol (C12)] the “Absorbent body migration rate” value was 5 s. With `CC(C)CCCCCCCCCCCCCCCOC(=O)CC(O)C(=O)OCCCCCCCCCCCCCCCC(C)C` (stereo not drawn) [Diisostearyl malate] the “Absorbent body migration rate” value was 8 s. With `CCCCCCCCOC(=O)CCCCC(=O)OCCCCCCCC` [Dioctyl adipate] the “Absorbent body migration rate” value was 6 s. For `CCCCCCCC(=O)OCC(COC(=O)CCCCCCC)OC(=O)CCCCCCC` [PANACET 800], the “Absorbent body migration rate” value was 3 s. In the case of `CCCCC(CC)C(=O)OCC(C)(C)COC(=O)C(CC)CCCC` (stereo not drawn) [H-208BRS, Neopentyl glycol di(2-ethylhexanoate)], the “Absorbent body migration rate” value is reported as 5 s.
